These results are taken from patent publication US20160185797A1, “ALKYNYL ALCOHOLS AND METHODS OF USE” (Genentech, Inc., priority 2013, published 2016).

Amino acid sequences for entries named in this document (tags omitted).
UniProt Q99558, whole entry: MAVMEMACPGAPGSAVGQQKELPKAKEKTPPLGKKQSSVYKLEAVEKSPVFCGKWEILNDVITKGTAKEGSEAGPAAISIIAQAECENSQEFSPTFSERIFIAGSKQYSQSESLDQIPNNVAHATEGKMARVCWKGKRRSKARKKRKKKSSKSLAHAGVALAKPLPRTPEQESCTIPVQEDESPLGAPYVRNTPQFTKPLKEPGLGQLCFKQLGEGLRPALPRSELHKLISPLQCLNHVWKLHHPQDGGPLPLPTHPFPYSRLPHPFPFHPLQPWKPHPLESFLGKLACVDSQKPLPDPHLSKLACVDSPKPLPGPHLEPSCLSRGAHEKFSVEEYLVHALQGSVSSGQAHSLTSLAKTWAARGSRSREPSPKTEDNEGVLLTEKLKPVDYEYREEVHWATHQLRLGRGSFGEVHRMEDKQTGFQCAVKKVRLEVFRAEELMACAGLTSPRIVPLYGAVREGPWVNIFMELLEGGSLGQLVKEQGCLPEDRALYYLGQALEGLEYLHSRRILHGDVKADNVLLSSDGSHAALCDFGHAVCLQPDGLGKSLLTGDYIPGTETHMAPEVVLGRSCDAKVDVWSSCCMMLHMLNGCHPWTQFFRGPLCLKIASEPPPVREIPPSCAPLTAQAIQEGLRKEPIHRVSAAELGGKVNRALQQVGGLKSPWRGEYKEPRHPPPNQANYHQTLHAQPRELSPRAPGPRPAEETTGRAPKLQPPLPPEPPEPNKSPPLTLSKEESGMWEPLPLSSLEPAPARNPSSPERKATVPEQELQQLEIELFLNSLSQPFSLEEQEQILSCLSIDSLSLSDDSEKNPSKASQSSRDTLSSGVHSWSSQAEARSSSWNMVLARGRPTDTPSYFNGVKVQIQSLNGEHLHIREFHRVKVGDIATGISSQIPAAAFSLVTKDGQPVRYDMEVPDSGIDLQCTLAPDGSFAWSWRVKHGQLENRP

The match of structure and compound is tentative.

Broadly, the Ki is a dissociation constant, usually derived from enzyme kinetics or from competition with a known ligand.

Experiment [1] deals with nuclear factor-kappa B (NF-kB)-inducing kinase (NIK) (Homo sapiens, UniProt Q99558). Nature of the experiment: NIK enzyme inhibition assay (Transcreener ADP fluorescence polarization, NIK ADP-FP). Format: biochemical. Conditions: read-out: NIK ADP-FP (Ki μM); purified NIK 0.5 nM, 10 μM ATP, pH 7.2; Ki from Morrison's quadratic equation. For orientation: In fluorescence polarisation assays a small probe gives low polarisation when free and higher when bound to something large.

The subject of experiment [2] is REL-A (p65) nuclear translocation in HeLa cells. Nature of the experiment: REL-A (p65) nuclear translocation assay in HeLa cells, TNF-α stimulated (classical NF-kB signaling), high content imaging. Format: cell-based. Conditions: read-out: REL-A HeLa Transloc Assay (IC50), compound 4.5 h, then 10 ng/mL TNF-α for 30 minutes. How it is done:
Several assays were developed to profile the cellular activities of NIK inhibitors.
(2) A second set of cell assay are used to define the selectivity of NIK inhibitors toward inhibition of classical vs. non-classical NF-kB signaling and rely on quantification of the nuclear translocation of p52 (NF-kB2) and REL-A (p65) using high content cellular imaging. For the p52 (non-classical NF-kB signaling) nuclear translocation assay, HeLa cells are treated with different concentrations of compounds (0.2% DMSO final) in medium containing 10% fetal bovine serum and then stimulated with 100 ng/mL of an anti-lymphotoxin beta receptor antibody (R&D Systems) for 5 hours. In the REL-A nuclear translocation assay, HeLa cells are incubated with compounds (0.2% DMSO final) for 4.5 hours in medium containing 10% fetal bovine serum before stimulating them with 10 ng/mL tumor necrosis factor (TNF)-α (R&D Systems) for 30 minutes. […] Imaging is carried out using an Opera reader (Perkin Elmer) and data are analyzed with the aid of Acapella software (Perkin Elmer). The p52 or REL-Atranslocation into the nucleus is quantified by the ratio of the nuclear to cytoplasmic signal intensity. […]

The test system of experiment [3] is p52 (NF-kB2) nuclear translocation in HeLa cells. Nature of the experiment: p52 (NF-kB2) nuclear translocation assay in HeLa cells, anti-lymphotoxin beta receptor antibody stimulated (non-classical NF-kB signaling), high content imaging. The following applies: read-out: p52 HeLa Transloc Assay (IC50), 100 ng/mL anti-lymphotoxin beta receptor antibody for 5 hours.

With `CN1CC[C@@](O)(C#Cc2cccc(-c3nc(C(N)=O)cc4cccnc34)c2)C1=O`, the Ki in experiment [1] is 0.0031 µM. For the same molecule, the values for the IC50 in experiment [2] and in experiment [3] were no less than 20 µM and 837 nM, respectively.
